# Laboratory results published in patent US11174289B1, “Artificial intelligence designed antimicrobial peptides” (International Business Machines Corporation, priority 2020, dated 2021).
# Assays:
# [1] = tested on: rat red blood cells (rRBCs); settings: compared with MIC values, numbers only in FIG. 6
# Balb/c mice = settings: intraperitoneal injection, mortality monitored 14 days, compared with MIC values, numbers only in FIG. 6
SMILES,50% hemolysis (HC50) [1],LD50 (Balb/c mice)
CC(C)C[C@H](NC(=O)[C@H](Cc1c[nH]c2ccccc12)NC(=O)[C@@H](NC(=O)[C@H](CC(C)C)NC(=O)[C@@H]1CCCN1C(=O)[C@@H](N)Cc1ccccc1)[C@@H](C)O)C(=O)N[C@@H](CCCCN)C(=O)N[C@@H](Cc1c[nH]c2ccccc12)C(=O)N[C@@H](Cc1c[nH]c2ccccc12)C(=O)N[C@@H](CCCCN)C(=O)N[C@@H](Cc1c[nH]c2ccccc12)C(=O)N[C@@H](CCCCN)C(=O)N[C@@H](CCCCN)C(N)=O [FK13],much higher than their MIC values,much higher than their MIC values
CC[C@H](C)[C@H](NC(=O)[C@H](CCSC)NC(=O)[C@H](CCCCN)NC(=O)[C@H](C)NC(=O)[C@H](CCSC)NC(=O)[C@H](Cc1ccc(O)cc1)NC(=O)[C@H](CCCNC(=N)N)NC(=O)[C@@H](NC(=O)[C@H](CC(C)C)NC(=O)[C@H](CCCNC(=N)N)NC(=O)[C@H](CC(C)C)NC(=O)[C@@H](N)Cc1ccc(O)cc1)[C@@H](C)CC)C(N)=O [YI12],much higher than their MIC values,much higher than their MIC values
